Experimental findings from patent US20180346588A1 are described below.

Sequences of proteins named here, by UniProt entry; tags and fusion partners are left off. A change or cut given only in a name is not applied to a line headed by its entry.
UniProt Q13421: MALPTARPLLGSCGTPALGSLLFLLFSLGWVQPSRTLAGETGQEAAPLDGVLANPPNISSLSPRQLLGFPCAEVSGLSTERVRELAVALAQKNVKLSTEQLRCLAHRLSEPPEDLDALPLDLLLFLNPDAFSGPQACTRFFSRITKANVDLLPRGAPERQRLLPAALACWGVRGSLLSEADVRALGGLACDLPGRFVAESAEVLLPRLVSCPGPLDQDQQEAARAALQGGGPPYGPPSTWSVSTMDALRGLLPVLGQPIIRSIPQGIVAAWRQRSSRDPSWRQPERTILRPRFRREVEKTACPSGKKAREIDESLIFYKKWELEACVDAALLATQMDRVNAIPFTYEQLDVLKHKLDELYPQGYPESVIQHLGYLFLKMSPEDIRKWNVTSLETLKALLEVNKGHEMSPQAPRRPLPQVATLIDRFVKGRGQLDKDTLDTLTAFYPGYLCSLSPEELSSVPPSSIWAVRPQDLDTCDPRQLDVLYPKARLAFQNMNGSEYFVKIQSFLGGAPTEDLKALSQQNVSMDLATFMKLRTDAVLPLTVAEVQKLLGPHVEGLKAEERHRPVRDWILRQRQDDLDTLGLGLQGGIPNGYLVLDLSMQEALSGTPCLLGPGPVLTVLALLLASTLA

These are yes or no findings as the source states them, for the method shown. Some binding calls cover weakened binding; strength is not graded here.

Experiment [1] addresses recombinant human mesothelin (MSLN) (human) (UniProt Q13421). Put plainly: ELISA, Fab supernatant on MSLN-coated plate. A general note: In an ELISA, binding on a coated surface is turned into a signal by an enzyme label.
Experiment [2] has the same target. Put plainly: SPR (Biacore), Fab culture supernatant diluted 1/10 over human MSLN fixed on a CM5 chip, Example 3-7. (In general: SPR reads the build-up and loss of mass on a sensor chip optically.)

B1: clone 2-73 (MS502 heavy chain variable region mutation antibody) (antibody, V domains shown)
VH: EVQLLESGGGLVQPGGSLRLSCAASGFTFSNYAMSWVRQAPGKGLEWVSGIPPNSDSKYYADSVRGRFTVSRDNSKNTLYLQMNSLRAEDTAVYYCAKNMLSFDYWGQGTLVTVSS
VL: QSVLTQPPSASGTPGQRVTISCTGSSSNIGSNAVSWYQQLPGTAPKLLIYYNSKRPSGVPDRFSGSKSGTSASLAISGLRSEDEADYYCGSWDSSLNGYVFGGGTKVTVLG
B1: the binding result in experiment [1] and in experiment [2] was “binds” throughout.
